Results are given in words; binding and its absence hold for the method and conditions named. Binding seen in cells or lysates may run through a third protein. Some entries that bind do so weakly or less than the wild type. Sequences can lack the tags named with a protein.

The chains behind the UniProt entries cited, without tags or fusion partners.
UniProt Q24572: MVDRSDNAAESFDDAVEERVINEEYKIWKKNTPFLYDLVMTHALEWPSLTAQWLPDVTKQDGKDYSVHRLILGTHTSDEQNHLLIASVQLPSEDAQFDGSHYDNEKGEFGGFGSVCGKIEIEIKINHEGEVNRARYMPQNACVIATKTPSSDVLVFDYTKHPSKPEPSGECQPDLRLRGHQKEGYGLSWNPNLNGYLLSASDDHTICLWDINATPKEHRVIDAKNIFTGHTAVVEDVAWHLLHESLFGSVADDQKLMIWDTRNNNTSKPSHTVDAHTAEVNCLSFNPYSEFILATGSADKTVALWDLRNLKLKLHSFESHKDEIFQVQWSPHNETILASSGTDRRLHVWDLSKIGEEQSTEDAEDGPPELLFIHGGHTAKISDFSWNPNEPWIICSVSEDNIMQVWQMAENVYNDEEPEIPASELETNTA

The results in this text go back to publication PMC7891773.

This test concerns the target T1, GST-mFOG1 (aa 1-45) (mouse) (UniProt O35615).
T1 sequence: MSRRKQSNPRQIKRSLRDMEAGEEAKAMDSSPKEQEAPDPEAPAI
As to the kind of experiment: pull-down; GST-mFOG1(1-45) on Glutathione Sepharose with S2 cell nuclear extract, without or with competing peptides; Western blot; the pair that is blocked; only the target purified.

As to dp55 (from UniProt Q24572 1-430), the binding entry is “binds”.
